Taken from: PubChem BioAssay AID686938 (Drosophila RNAi Screening Center, 2013)

Purpose: 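Looking for CRAC channel components and the factors controlling them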 (primary screen)
System: Drosophila S2R+ cells
Reagents: long dsRNA against Drosophila genes, about 0.25 µg dsRNA per well, roughly 10,000 cells
Timing: 5 days of knock-down before the calcium assay
Conditions: thapsigargin (SERCA pump blocker) to empty calcium stores; entry signal taken 4 min after adding it
Measurement: 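Duplicate raw fluo-4 intensities per well from a plate reader, at rest and four minutes after thapsigargin emptied calcium stores; entry-to-rest ratio filled for only some wells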
Scale: calcium entry signal: higher = stronger calcium signal after store depletion; entry to resting ratio: higher = more calcium entry relative to resting level; resting calcium signal: higher = higher resting calcium signal
Active means: 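Hit if the duplicate-averaged plate z-score for entry over resting signal is under −3; wells with weak total dye signal (Fmax z < −2) or more than 5 off-targets removed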
Calls: active = strongly reduced calcium entry; inactive = no strong reduction
The deposit covers about 23,000 reagents; this is an unselected part of those that have a named target and a result. Of all reagents, 75 (0.33%) got an active call. 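Raw plate signals without normalisation; calls rest on plate z-scores that were not deposited; ratio present for only 364 wells.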 Entries without a mark were called inactive. The numbers tell different reagents against one gene apart. Names joined by + are all predicted targets of the reagent. No sequences are given here. The record does not give: the dose of the treatment.

gene | dsRNA no. | calcium entry signal, replicate 1 (fluorescence units) | calcium entry signal, replicate 2 (fluorescence units) | entry to resting ratio | resting calcium signal, replicate 1 (fluorescence units) | resting calcium signal, replicate 2 (fluorescence units)
CG13711 (GeneID 38576) | 1 | 2.92e7 | 5.34e7 | – | 1.47e7 | 2.15e7
sug (GeneID 36424) | 1 | 4.55e7 | 4.60e7 | – | 1.78e7 | 2.06e7
dj-1beta (GeneID 43652) | 1 | 4.36e7 | 6.44e7 | – | 2.16e7 | 2.60e7
Tnpo (GeneID 38721) | 1 | 3.16e7 | 2.44e7 | – | 2.11e7 | 1.18e7
CG42304 + Snup | 1 | 4.57e7 | 3.45e7 | – | 2.35e7 | 1.77e7
CG42304 + Snup | 2 | 4.08e7 | 4.72e7 | – | 2.01e7 | 2.20e7
CG42304 + Snup | 3 | 4.65e7 | 3.61e7 | – | 2.87e7 | 1.77e7
Sgs7 (GeneID 47198) | 1 | 2.77e7 | 3.92e7 | – | 1.55e7 | 1.82e7
CG6788 + CR32496 | 1 | 3.23e7 | 4.72e7 | – | 1.53e7 | 2.46e7
CG8008 (GeneID 35935) | 1 | 2.42e7 | 2.29e7 | – | 1.10e7 | 1.11e7
Osi21 (GeneID 34566) | 1 | 3.20e7 | 4.59e7 | – | 1.61e7 | 1.88e7
shv (GeneID 33220) | 1 | 2.79e7 | 2.96e7 | – | 1.41e7 | 1.39e7
shv (GeneID 33220) | 2 | 2.19e7 | 5.70e7 | – | 1.17e7 | 2.41e7
CG18327 (GeneID 36567) | 1 | 3.86e7 | 4.06e7 | – | 1.92e7 | 1.80e7
CG44000 + CG33995 + CG44001 | 1 | 3.36e7 | 4.03e7 | – | 1.88e7 | 1.84e7
CG44000 + CG33995 + CG44001 | 2 | 4.17e7 | – | – | 1.69e7 | –
Dis3l2 (GeneID 38034) | 1 | 4.27e7 | 3.44e7 | – | 1.91e7 | 1.88e7
Eig71Ek (GeneID 39712) | 1 | 3.96e7 | 5.71e7 | – | 1.91e7 | 2.29e7
Dpp10 (GeneID 33923) | 1 | 3.94e7 | 4.61e7 | – | 2.03e7 | 1.99e7
Dpp10 (GeneID 33923) | 2 | 2.80e7 | 2.90e7 | – | 1.39e7 | 1.39e7
ple (GeneID 38746) | 1 | 3.38e7 | 5.27e7 | – | 1.80e7 | 2.42e7
CG17776 (GeneID 50373) | 1 | 3.81e7 | 6.25e7 | 2 | 1.93e7 | 2.46e7
CG14626 (GeneID 31064) | 1 | 5.68e7 | 6.08e7 | 2.1 | 2.72e7 | 2.50e7
Camta (GeneID 35974) | 1 | 5.08e7 | 4.21e7 | – | 2.56e7 | 1.97e7
Camta (GeneID 35974) | 2 | 4.07e7 | 2.81e7 | – | 2.49e7 | 1.78e7
Camta (GeneID 35974) | 3 | 3.51e7 | 2.88e7 | – | 1.44e7 | 1.33e7
Camta (GeneID 35974) | 4 | 4.35e7 | 2.78e7 | – | 2.41e7 | 1.35e7
Camta (GeneID 35974) | 5 | 2.97e7 | 3.97e7 | – | 1.48e7 | 1.81e7
CG15705 (GeneID 36815) | 1 | 4.51e7 | 4.61e7 | – | 1.95e7 | 2.17e7
udd (GeneID 35781) | 1 | 2.84e7 | 2.93e7 | – | 1.35e7 | 1.34e7
CG5039 (GeneID 43100) | 1 | 4.60e7 | 5.23e7 | – | 2.10e7 | 2.28e7
Cenp-C (GeneID 41014) | 1 | 2.13e7 (active) | 2.79e7 | – | 1.39e7 | 1.84e7
Usp32 (GeneID 40169) | 1 | 3.54e7 | 5.49e7 | – | 1.67e7 | 2.33e7
CG14416 (GeneID 31273) | 1 | 3.12e7 | 5.65e7 | 2 | 1.56e7 | 2.10e7
Snx27 (GeneID 31493) | 1 | 3.16e7 | 4.73e7 | – | 1.68e7 | 2.22e7
Snx27 (GeneID 31493) | 2 | 3.17e7 | 4.79e7 | – | 1.63e7 | 2.43e7
Snx27 (GeneID 31493) | 3 | 3.04e7 | 5.04e7 | – | 1.60e7 | 2.35e7
RanBPM (GeneID 36102) | 1 | 5.76e7 | 4.49e7 | – | 2.39e7 | 2.12e7
CG13742 + CNT1 | 1 | 3.16e7 | 3.72e7 | – | 1.44e7 | 1.70e7
Alk (GeneID 53425) | 1 | 4.45e7 | 2.68e7 | – | 2.09e7 | 1.40e7
Alk (GeneID 53425) | 2 | 3.42e7 | 3.47e7 | – | 2.01e7 | 1.66e7
bru2 (GeneID 250811) | 1 | 5.60e7 | 3.65e7 | – | 2.48e7 | 1.62e7
bru2 (GeneID 250811) | 2 | 3.24e7 | 2.52e7 | – | 2.10e7 | 1.54e7
bru2 (GeneID 250811) | 3 | 4.17e7 | 3.93e7 | – | 2.30e7 | 1.73e7
bru2 (GeneID 250811) | 4 | 4.78e7 | 4.02e7 | – | 2.17e7 | 1.84e7
bru2 (GeneID 250811) | 5 | 1.95e7 | 2.14e7 | – | 1.17e7 | 1.10e7
Cyp6a2 (GeneID 35587) | 1 | 3.73e7 | 4.99e7 | – | 1.76e7 | 2.21e7
eIF2A (GeneID 40431) | 1 | 2.82e7 | 4.09e7 | – | 1.30e7 | 2.79e7
CG16812 (GeneID 34722) | 1 | 4.71e7 | – | – | 2.34e7 | –
CG12115 (GeneID 31853) | 1 | 1.80e7 | 2.71e7 | – | 8.70e6 | 1.23e7
Taf5 (GeneID 47900) | 1 | 3.40e7 | 2.74e7 | – | 1.63e7 | 1.43e7
promL (GeneID 38372) | 1 | 3.55e7 | 2.95e7 | – | 2.36e7 | 1.24e7
CG6470 (GeneID 32840) | 1 | 3.47e7 | 3.38e7 | – | 1.64e7 | 1.47e7
CG13409 (GeneID 42592) | 1 | 4.62e7 | 4.33e7 | – | 5.74e7 | 2.16e7
CG15412 (GeneID 33553) | 1 | 2.39e7 | 2.53e7 | – | 1.15e7 | 1.32e7
CG10068 (GeneID 40852) | 1 | 4.69e7 | 4.55e7 | – | 1.84e7 | 2.06e7
CG6650 (GeneID 39555) | 1 | 2.05e7 | 3.11e7 | – | 1.04e7 | 2.03e7
CG43897 (GeneID 39153) | 1 | 3.11e7 | 5.09e7 | – | 1.68e7 | 2.35e7
CG43897 (GeneID 39153) | 2 | 3.13e7 | 4.78e7 | – | 1.79e7 | 2.35e7
CG43897 (GeneID 39153) | 3 | 3.10e7 | 4.72e7 | – | 1.65e7 | 2.16e7
CG43897 (GeneID 39153) | 4 | 6.32e7 | 4.26e7 | – | 3.14e7 | 1.94e7
